Results from paper PMC6294503.
Results are given in words; binding and its absence hold for the method and conditions named. Binding seen in cells or lysates may run through a third protein. Some binding calls cover weakened binding; strength is not graded here. Tags and fused reporters may be left off the sequences shown.

Key:
[1] = target: T1, Bdp1-3TA-Myc (non-phosphorylatable Bdp1, T26, T28 and T33 substituted by alanine) (S. cerevisiae) (UniProt P46678); assay: co-IP; S phase-synchronized cells (CDK1 or cdk1-as1 background); lysis buffer 50 mM HEPES-KOH pH 7.5, 100 mM KCl, 5 mM MgCl2, 1 mM EDTA, 1% Triton, 3 mM DTT, 5% glycerol; Bdp1 immunoprecipitated with Myc antibodies on magnetic beads; western blot with anti-Myc and anti-HA
T1 sequence: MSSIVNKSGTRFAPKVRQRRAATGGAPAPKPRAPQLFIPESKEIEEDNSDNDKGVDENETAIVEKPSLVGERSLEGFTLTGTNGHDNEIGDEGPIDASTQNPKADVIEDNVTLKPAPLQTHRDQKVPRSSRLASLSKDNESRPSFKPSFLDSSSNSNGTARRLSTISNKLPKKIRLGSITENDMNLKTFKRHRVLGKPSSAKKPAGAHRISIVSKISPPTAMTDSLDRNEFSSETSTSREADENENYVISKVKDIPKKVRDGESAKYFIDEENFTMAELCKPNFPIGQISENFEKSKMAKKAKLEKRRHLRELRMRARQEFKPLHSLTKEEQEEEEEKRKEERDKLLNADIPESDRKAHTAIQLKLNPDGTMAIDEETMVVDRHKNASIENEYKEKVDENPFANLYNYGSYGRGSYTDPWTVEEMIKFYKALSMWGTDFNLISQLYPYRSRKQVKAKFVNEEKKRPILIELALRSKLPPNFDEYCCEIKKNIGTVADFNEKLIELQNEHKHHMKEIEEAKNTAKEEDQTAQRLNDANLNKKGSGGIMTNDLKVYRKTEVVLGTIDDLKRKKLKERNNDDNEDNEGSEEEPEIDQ

[2] = target: T2, Bdp1-Myc (Myc-tagged Bdp1, subunit of TFIIIB) (S. cerevisiae) (UniProt P46678); assay: as above
T2 sequence: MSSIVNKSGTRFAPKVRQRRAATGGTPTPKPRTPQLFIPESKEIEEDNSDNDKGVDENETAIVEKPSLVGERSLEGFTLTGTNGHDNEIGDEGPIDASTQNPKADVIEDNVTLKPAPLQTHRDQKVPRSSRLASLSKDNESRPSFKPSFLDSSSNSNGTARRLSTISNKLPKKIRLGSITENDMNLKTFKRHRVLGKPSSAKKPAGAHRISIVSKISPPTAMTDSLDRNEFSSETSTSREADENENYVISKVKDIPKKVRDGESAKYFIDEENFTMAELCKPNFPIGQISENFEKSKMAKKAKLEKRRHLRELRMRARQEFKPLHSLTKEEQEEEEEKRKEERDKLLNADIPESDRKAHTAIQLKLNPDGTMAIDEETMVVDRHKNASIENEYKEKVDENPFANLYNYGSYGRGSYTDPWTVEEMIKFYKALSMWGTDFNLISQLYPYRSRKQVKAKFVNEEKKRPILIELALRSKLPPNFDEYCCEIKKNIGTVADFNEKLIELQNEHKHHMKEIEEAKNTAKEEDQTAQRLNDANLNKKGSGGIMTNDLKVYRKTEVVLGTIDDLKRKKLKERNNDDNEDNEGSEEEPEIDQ

binding [1]: binds
binding [2]: binds
B1: Tfc4-HA (HA-tagged Tfc4, subunit of TFIIIC) (protein, UniProt P33339 1-1025)
chain: MAAGKLKKEQQNQSAERESADTGKVNDEDEEHLYGNIDDYKHLIQDEEYDDEDVPHDLQLSEDEYNSERDSSLLAEFSDYGEISEDDEEDFMNAIREASNFKVKKKKKNDKGKSYGRQRKERVLDPEVAQLLSQANEAFVRNDLQVAERLFNEVIKKDARNFAAYETLGDIYQLQGRLNDCCNSWFLAAHLNASDWEFWKIVAILSADLDHVRQAIYCFSRVISLNPMEWESIYRRSMLYKKTGQLARALDGFQRLYMYNPYDANILRELAILYVDYDRIEDSIELYMKVFNANVERREAILAALENALDSSDEESAAEGEDADEKEPLEQDEDRQMFPDINWKKIDAKYKCIPFDWSSLNILAELFLKLAVSEVDGIKTIKKCARWIQRRESQTFWDHVPDDSEFDNRRFKNSTFDSLLAAEKEKSYNIPIDIRVRLGLLRLNTDNLVEALNHFQCLYDETFSDVADLYFEAATALTRAEKYKEAIDFFTPLLSLEEWRTTDVFKPLARCYKEIESYETAKEFYELAIKSEPDDLDIRVSLAEVYYRLNDPETFKHMLVDVVEMRKHQVDETLHRISNEKSSNDTSDISSKPLLEDSKFRTFRKKKRTPYDAERERIERERRITAKVVDKYEKMKKFELNSGLNEAKQASIWINTVSELVDIFSSVKNFFMKSRSRKFVGILRRTKKFNTELDFQIERLSKLAEGDSVFEGPLMEERVTLTSATELRGLSYEQWFELFMELSLVIAKYQSVEDGLSVVETAQEVNVFFQDPERVKMMKFVKLAIVLQMDDEEELAENLRGLLNQFQFNRKVLQVFMYSLCRGPSSLNILSSTIQQKFFLRQLKAFDSCRYNTEVNGQASITNKEVYNPNKKSSPYLYYIYAVLLYSSRGFLSALQYLTRLEEDIPDDPMVNLLMGLSHIHRAMQRLTAQRHFQIFHGLRYLYRYHKIRKSLYTDLEKQEADYNLGRAFHLIGLVSIAIEYYNRVLENYDDGKLKKHAAYNSIIIYQQSGNVELADHLMEKYLSI
